Results are given in words; binding and its absence hold for the method and conditions named. In cells and extracts the contact can be indirect. These calls come from enrichment with a bait or labelling near it, and not all partners need be listed. For some of these results: A no says only that the protein was not detected with the bait. Sequences can lack the tags named with a protein.

Sequences of proteins named here, by UniProt entry; tags and fusion partners are left off.
UniProt Q9NU22: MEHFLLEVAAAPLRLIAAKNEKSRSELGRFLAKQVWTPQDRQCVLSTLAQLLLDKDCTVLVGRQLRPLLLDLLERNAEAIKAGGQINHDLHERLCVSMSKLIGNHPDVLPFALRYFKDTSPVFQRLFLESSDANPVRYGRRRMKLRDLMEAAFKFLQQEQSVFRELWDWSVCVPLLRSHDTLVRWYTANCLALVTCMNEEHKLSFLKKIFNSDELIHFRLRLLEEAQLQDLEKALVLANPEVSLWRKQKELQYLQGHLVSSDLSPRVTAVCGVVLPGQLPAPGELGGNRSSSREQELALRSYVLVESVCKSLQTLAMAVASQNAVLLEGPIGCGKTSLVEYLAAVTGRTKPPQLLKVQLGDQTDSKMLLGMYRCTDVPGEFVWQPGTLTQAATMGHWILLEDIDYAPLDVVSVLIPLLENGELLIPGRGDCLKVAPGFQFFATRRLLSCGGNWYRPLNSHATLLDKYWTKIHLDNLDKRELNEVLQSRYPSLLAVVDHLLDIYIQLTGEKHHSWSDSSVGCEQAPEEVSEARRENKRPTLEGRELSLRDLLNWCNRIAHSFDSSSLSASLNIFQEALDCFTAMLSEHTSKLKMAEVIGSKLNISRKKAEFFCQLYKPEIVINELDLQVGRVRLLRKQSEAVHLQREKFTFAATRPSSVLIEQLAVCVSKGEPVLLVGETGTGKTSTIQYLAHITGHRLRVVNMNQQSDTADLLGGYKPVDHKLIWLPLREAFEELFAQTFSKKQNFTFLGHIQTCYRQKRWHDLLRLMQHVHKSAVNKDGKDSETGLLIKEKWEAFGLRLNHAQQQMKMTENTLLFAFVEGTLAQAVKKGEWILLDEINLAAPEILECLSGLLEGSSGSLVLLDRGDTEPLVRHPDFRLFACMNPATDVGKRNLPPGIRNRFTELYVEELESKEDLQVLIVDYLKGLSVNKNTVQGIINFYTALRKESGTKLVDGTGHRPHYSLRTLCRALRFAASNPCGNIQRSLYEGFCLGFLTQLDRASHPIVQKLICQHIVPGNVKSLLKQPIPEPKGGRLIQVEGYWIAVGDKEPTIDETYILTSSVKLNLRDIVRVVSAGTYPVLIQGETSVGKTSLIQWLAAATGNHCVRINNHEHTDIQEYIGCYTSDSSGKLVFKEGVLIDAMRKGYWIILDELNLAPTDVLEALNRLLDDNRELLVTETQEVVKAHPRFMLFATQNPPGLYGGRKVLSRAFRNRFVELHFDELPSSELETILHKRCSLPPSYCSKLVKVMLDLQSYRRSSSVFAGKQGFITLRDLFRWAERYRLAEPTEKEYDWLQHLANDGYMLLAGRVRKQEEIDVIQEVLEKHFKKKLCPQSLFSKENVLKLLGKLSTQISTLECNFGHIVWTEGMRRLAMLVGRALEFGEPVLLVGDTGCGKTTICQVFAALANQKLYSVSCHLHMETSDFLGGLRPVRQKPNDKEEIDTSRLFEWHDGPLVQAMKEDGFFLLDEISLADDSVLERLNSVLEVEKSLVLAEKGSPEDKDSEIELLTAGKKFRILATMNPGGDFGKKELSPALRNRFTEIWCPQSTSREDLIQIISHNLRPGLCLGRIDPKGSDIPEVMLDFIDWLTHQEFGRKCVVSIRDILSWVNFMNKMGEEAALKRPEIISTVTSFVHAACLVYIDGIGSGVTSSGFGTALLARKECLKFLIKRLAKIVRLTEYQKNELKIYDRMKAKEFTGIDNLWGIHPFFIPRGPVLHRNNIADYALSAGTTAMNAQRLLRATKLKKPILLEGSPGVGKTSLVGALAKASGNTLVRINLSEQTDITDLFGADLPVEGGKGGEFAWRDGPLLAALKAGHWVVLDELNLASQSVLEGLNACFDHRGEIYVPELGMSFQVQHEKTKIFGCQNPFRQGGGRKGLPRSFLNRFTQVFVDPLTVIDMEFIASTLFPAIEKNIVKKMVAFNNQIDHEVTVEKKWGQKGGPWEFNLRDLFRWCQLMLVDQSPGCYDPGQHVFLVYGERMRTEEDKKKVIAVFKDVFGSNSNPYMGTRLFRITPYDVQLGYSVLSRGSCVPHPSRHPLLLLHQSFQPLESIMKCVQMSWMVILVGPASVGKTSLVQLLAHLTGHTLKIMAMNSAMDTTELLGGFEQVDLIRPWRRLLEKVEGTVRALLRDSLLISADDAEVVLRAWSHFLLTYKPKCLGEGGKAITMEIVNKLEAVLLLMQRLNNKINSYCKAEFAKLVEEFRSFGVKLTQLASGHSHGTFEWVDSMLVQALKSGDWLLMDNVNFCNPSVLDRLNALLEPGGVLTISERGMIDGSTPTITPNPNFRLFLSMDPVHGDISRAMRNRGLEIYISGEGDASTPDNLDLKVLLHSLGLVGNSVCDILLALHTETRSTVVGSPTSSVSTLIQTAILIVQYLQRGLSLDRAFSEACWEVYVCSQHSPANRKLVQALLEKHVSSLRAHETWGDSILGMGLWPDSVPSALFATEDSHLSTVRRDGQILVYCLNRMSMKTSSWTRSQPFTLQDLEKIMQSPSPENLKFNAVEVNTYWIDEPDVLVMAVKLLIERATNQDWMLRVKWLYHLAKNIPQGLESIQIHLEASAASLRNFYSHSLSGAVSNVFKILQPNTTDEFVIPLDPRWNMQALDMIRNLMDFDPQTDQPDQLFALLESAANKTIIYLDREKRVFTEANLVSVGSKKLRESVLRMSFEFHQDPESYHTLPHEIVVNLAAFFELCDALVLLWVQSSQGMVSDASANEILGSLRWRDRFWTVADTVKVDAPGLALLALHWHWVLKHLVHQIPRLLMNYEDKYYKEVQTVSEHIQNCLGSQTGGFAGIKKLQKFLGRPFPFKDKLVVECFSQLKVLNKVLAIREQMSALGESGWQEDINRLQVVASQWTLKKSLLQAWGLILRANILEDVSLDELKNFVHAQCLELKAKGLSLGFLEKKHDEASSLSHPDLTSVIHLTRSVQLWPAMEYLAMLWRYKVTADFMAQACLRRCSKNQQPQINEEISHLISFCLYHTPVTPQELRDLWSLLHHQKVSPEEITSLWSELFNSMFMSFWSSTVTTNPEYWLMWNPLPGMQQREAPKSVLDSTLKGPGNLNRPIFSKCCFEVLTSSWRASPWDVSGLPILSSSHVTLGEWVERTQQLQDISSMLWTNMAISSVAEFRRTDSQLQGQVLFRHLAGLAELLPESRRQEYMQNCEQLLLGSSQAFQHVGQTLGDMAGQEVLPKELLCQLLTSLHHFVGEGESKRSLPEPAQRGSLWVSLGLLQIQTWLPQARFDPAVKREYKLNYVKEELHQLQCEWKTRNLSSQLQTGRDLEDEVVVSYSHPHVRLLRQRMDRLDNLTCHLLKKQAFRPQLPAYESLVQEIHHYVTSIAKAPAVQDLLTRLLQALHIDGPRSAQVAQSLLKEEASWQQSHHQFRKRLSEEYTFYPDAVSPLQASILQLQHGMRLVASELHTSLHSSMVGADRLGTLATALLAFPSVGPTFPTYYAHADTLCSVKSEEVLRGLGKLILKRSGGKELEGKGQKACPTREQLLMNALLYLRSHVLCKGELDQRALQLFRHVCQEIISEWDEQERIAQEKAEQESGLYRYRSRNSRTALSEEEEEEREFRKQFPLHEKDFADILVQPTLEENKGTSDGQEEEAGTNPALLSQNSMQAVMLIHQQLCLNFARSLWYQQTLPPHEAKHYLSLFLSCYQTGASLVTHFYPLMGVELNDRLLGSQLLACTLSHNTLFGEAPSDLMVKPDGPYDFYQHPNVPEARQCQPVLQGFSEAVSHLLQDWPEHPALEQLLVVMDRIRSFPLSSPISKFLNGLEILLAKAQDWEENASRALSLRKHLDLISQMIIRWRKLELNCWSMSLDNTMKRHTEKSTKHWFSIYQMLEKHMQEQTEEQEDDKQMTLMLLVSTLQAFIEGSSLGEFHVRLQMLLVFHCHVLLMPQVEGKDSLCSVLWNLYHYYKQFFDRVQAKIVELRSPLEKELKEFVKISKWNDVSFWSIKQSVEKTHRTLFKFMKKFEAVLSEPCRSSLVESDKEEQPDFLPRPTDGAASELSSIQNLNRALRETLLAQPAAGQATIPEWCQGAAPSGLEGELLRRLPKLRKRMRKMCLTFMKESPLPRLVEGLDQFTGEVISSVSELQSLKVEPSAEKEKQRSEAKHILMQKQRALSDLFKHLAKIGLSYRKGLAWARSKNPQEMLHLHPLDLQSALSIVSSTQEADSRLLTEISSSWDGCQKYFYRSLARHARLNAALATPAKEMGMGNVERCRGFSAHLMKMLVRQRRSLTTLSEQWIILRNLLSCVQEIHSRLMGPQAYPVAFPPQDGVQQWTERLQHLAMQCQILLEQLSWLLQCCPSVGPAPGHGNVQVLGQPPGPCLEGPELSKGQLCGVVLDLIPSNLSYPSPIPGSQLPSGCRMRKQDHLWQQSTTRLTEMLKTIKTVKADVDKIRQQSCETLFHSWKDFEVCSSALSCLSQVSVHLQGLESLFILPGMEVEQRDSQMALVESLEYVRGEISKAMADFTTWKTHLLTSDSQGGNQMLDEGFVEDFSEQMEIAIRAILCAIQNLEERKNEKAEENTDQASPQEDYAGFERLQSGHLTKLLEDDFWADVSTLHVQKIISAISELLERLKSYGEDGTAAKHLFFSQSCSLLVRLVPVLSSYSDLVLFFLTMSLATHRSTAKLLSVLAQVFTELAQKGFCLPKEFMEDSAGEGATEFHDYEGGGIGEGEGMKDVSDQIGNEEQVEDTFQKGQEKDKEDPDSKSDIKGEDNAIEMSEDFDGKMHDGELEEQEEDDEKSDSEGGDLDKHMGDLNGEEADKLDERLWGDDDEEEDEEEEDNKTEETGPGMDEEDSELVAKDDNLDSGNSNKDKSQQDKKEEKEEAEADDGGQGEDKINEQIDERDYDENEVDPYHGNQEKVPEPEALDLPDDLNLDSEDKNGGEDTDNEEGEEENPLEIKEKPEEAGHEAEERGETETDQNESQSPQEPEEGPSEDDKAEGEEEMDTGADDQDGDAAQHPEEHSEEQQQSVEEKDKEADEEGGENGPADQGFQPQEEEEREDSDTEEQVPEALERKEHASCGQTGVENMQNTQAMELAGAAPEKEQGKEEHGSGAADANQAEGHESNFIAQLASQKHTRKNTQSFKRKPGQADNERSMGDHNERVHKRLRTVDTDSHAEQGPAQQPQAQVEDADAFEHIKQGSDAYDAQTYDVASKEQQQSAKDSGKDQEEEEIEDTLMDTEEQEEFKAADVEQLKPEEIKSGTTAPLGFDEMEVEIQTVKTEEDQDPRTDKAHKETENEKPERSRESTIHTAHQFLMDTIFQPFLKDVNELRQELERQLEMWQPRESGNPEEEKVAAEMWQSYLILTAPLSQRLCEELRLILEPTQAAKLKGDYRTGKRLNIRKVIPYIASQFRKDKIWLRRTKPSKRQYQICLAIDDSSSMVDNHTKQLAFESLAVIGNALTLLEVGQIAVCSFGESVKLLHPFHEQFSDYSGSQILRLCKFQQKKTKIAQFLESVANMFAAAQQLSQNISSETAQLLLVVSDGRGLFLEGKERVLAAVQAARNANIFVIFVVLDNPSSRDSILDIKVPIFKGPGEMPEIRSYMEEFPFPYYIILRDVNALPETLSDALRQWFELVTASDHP
UniProt Q969R5: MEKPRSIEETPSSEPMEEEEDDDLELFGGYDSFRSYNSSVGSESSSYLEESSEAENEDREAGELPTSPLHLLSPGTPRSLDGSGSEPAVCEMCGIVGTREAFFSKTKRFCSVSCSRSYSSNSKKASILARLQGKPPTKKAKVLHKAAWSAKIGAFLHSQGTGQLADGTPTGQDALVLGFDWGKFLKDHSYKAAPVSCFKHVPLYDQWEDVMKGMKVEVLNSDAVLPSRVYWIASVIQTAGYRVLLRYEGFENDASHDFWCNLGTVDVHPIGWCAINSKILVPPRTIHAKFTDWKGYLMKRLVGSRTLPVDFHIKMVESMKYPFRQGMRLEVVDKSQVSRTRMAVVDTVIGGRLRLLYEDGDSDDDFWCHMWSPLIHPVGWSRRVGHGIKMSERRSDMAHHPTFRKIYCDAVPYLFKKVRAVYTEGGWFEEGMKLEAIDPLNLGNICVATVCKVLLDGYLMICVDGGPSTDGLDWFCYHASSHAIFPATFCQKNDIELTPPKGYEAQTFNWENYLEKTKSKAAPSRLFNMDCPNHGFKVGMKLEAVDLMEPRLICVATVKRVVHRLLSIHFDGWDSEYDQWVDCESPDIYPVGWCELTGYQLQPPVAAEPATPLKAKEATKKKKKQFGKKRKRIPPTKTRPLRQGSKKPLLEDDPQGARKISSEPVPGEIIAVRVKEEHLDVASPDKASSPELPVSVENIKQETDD
UniProt P83916: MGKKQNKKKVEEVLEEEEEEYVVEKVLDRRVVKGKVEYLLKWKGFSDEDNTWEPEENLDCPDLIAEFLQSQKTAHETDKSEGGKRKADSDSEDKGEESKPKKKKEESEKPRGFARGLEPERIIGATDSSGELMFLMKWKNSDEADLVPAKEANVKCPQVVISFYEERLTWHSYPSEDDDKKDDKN

The values that follow come from article PMC8986528.

The chains are these.
B1: WDR18 (protein, UniProt Q9BV38 1-432)
chain: MAAPMEVAVCTDSAAPMWSCIVWELHSGANLLTYRGGQAGPRGLALLNGEYLLAAQLGKNYISAWELQRKDQLQQKIMCPGPVTCLTASPNGLYVLAGVAESIHLWEVSTGNLLVILSRHYQDVSCLQFTGDSSHFISGGKDCLVLVWSLCSVLQADPSRIPAPRHVWSHHALPITDLHCGFGGPLARVATSSLDQTVKLWEVSSGELLLSVLFDVSIMAVTMDLAEHHMFCGGSEGSIFQVDLFTWPGQRERSFHPEQDAGKVFKGHRNQVTCLSVSTDGSVLLSGSHDETVRLWDVQSKQCIRTVALKGPVTNAAILLAPVSMLSSDFRPSLPLPHFNKHLLGAEHGDEPRHGGLTLRLGLHQQGSEPSYLDRTEQLQAVLCSTMEKSVLGGQDQLRVRVTELEDEVRNLRKINRDLFDFSTRFITRPAK
B2: TEX10 (protein, UniProt Q9NXF1 1-929)
chain: MTKKRKRQHDFQKVKLKVGKKKPKLQNATPTNFKTKTIHLPEQLKEDGTLPTNNRKLNIKDLLSQMHHYNAGVKQSALLGLKDLLSQYPFIIDAHLSNILSEVTAVFTDKDANVRLAAVQLLQFLAPKIRAEQISPFFPLVSAHLSSAMTHITEGIQEDSLKVLDILLEQYPALITGRSSILLKNFVELISHQQLSKGLINRDRSQSWILSVNPNRRLTSQQWRLKVLVRLSKFLQALADGSSRLRESEGLQEQKENPHATSNSIFINWKEHANDQQHIQVYENGGSQPNVSSQFRLRYLVGGLSGVDEGLSSTENLKGFIEIIIPLLIECWVEAVPPQLATPVGNGIEREPLQVMQQVLNIISLLWKLSKQQDETHKLESWLRKNYLIDFKHHFMSRFPYVLKEITKHKRKEPNKSIKHCTVLSNNIDHLLLNLTLSDIMVSLANASTLQKDCSWIEMIRKFVTETLEDGSRLNSKQLNRLLGVSWRLMQIQPNREDTETLIKAVYTLYQQRGLILPVRTLLLKFFSKIYQTEELRSCRFRYRSKVLSRWLAGLPLQLAHLGSRNPELSTQLIDIIHTAAARANKELLKSLQATALRIYDPQEGAVVVLPADSQQRLVQLVYFLPSLPADLLSRLSRCCIMGRLSSSLAAMLIGILHMRSSFSGWKYSAKDWLMSDVDYFSFLFSTLTGFSKEELTWLQSLRGVPHVIQTQLSPVLLYLTDLDQFLHHWDVTEAVFHSLLVIPARSQNFDILQSAISKHLVGLTVIPDSTAGCVFGVICKLLDHTCVVSETLLPFLASCCYSLLYFLLTIEKGEAEHLRKRDKLWGVCVSILALLPRVLRLMLQSLRVNRVGPEELPVVGQLLRLLLQHAPLRTHMLTNAILVQQIIKNITTLKSGSVQEQWLTDLHYCFNVYITGHPQGPSALATVY
B3: RYBP (protein, UniProt Q8N488 1-228)
chain: MTMGDKKSPTRPKRQAKPAADEGFWDCSVCTFRNSAEAFKCSICDVRKGTSTRKPRINSQLVAQQVAQQYATPPPPKKEKKEKVEKQDKEKPEKDKEISPSVTKKNTNKKTKPKSDILKDPPSEANSIQSANATTKTSETNHTSRPRLKNVDRSTAQQLAVTVGNVTVIITDFKEKTRSSSTSSSTVTSSAGSEQQNQSSSGSESTDKGSSRSSTPKGDMSAVNDESF

The target in one assay is T1, Flag–CBX4 (human (endogenous in HEK 293FT)) (UniProt O00257).
T1 sequence: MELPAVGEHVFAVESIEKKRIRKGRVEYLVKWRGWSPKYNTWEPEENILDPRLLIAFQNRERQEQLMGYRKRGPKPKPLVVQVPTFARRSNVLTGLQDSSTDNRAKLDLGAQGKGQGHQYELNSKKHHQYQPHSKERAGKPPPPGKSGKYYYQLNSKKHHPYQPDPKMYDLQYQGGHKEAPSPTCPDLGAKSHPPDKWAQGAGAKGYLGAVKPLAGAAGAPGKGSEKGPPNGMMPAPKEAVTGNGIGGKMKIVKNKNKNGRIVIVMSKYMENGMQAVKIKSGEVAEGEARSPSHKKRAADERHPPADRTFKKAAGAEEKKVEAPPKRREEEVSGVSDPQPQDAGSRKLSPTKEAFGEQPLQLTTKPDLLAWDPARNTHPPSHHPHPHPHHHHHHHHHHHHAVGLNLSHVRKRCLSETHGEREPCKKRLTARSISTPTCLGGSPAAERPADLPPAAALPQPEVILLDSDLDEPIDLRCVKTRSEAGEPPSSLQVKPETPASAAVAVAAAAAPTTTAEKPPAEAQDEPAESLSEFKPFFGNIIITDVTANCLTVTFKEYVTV
Briefly: affinity purification with mass spectrometry; Flag immunoprecipitation from endogenously tagged HEK 293FT cells, on-bead trypsin digest, label-free mass spectrometry against untagged cells, two independent experiments.
Turning to PELP1 (from UniProt Q8IZL8 1-1130), the binding result was “binds”. Still for that read-out and setting: the same measure for MDN1 (from UniProt Q9NU22 1-5596): “binds”; for B1: “binds”.

The target in the next assay is T2, PHC2–Flag (human (endogenous in HEK 293FT)) (UniProt Q8IXK0).
T2 sequence: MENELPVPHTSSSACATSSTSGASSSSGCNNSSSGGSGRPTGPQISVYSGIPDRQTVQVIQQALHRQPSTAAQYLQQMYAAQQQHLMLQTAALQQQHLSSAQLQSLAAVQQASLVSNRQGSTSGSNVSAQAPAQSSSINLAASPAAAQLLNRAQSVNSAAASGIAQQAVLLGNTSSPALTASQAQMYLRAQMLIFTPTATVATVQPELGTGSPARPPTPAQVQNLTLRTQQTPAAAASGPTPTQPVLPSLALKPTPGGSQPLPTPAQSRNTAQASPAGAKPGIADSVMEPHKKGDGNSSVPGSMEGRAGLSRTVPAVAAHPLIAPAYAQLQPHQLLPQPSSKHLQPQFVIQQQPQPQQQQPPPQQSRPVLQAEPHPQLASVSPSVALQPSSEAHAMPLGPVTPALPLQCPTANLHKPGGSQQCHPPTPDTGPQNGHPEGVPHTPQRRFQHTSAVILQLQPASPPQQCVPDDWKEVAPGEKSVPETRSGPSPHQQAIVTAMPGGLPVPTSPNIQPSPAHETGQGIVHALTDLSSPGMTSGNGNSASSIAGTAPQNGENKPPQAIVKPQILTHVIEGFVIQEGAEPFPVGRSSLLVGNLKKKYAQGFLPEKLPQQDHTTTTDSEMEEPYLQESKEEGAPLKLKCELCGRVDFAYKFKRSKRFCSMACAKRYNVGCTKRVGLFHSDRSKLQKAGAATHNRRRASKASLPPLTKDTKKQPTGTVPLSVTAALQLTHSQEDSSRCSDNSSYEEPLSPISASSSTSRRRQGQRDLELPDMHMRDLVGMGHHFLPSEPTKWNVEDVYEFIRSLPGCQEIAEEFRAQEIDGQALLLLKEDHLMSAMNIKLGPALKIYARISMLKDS
The description is as above.
Turning to PELP1 (from UniProt Q8IZL8 1-1130), the binding result is on record as “binds”.

As for MDN1 (from UniProt Q9NU22 1-5596), the binding entry is recorded as “binds”.

The target in a further assay is T3, 3×Flag–NOL9 (human (endogenous in HEK 293FT)) (UniProt Q5SY16).
T3 sequence: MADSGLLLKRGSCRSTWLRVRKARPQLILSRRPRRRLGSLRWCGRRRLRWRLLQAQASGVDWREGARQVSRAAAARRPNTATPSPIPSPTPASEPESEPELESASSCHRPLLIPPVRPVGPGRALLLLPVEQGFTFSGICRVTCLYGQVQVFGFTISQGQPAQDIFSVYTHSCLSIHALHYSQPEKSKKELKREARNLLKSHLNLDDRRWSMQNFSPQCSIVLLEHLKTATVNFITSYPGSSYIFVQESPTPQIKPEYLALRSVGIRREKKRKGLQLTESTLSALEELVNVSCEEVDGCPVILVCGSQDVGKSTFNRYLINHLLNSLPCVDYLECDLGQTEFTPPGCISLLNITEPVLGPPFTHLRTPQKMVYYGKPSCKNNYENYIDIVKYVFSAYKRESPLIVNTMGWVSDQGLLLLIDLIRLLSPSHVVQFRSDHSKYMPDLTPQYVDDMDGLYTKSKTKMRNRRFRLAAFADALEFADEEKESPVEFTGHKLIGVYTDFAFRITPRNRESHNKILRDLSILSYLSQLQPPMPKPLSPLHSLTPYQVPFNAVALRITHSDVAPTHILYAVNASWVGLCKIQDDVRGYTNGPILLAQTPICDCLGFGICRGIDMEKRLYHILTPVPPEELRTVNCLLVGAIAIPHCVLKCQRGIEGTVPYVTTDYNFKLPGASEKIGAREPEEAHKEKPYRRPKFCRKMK
Briefly: affinity purification with mass spectrometry; Flag immunoprecipitation from the DNase I-digested chromatin fraction of endogenously tagged HEK 293FT cells (IP buffer 250 mM NaCl, 1% Triton X-100), tandem-mass-tag mass spectrometry against untagged cells, two independent experiments.
In the case of L3MBTL2 (from UniProt Q969R5 1-705), the binding entry is “binds”. On the same count and under the same terms, the same measure for USP7 (from UniProt Q93009 1-1102): “binds”; for HP1β (from UniProt P83916 1-185): “no binding”; for EED (from UniProt O75530 1-441): “binds”.

SUZ12 (from UniProt Q15022 1-739): the binding entry is recorded as “binds”. Same read-out and setting: the same measure for HP1α (from UniProt P45973 1-191): “no binding”; for RING1B (from UniProt Q99496 1-336): “binds”; for SENP3 (from UniProt Q9H4L4 1-574): “binds”. The same measure, in the same setting: the same measure for PELP1 (from UniProt Q8IZL8 1-1130): “binds”. On to HP1γ (from UniProt Q13185 1-183), for which the binding entry is “no binding”. On the same count and under the same terms, the same measure for MDN1 (from UniProt Q9NU22 1-5596): “binds”; for B2: “binds”; for B1: “binds”.

The target of the next assay is T4, 3×Flag–WDR18 (human (endogenous in HEK 293FT)) (UniProt Q9BV38).
T4 sequence: B1 chain
The assay is described as above.
In the case of USP7 (from UniProt Q93009 1-1102), the binding entry is given as “binds”. Still for that read-out and setting: the same measure for HP1β (from UniProt P83916 1-185): “no binding”.

Regarding RBBP4 (from UniProt Q09028 1-425), the binding result is “binds”. In the case of HP1α (from UniProt P45973 1-191), the binding result is on record as “no binding”. Still for that read-out and setting: the same measure for RING1B (from UniProt Q99496 1-336): “binds”; for HP1γ (from UniProt Q13185 1-183): “no binding”. The same measure, in the same setting: the same measure for B3: “binds”.
